PubChem BioAssay AID504808, Drosophila RNAi Screening Center | 2011
The deposit covers about 21,000 reagents; shown is an unselected part of those with a known target gene and a result. In the full data, 18 (0.084%) got an active call. 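Raw counts without plate normalisation, one of two replicates; the ratio scores behind the calls were not deposited.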 Reagents against one gene are numbered here. A plus sign joins genes that one reagent is predicted to hit. No sequences are given here. Not given: the amount of reagent, the time to read-out.

- Screen: 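Fly genes required to hold E2F transcription in check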 (primary screen)
- Cell system: Drosophila S2 cells
- Reagents: long dsRNA against Drosophila genes
- Detection: 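Firefly luciferase driven by E2F sites, normalised to Renilla luciferase on the same minimal promoter, measured by plate reader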
- Scale: E2F firefly: higher = more E2F reporter activity; Renilla normaliser: higher = more normaliser reporter signal
- Rule for the call: 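a knock-down counted as active when the firefly/Renilla E2F signal rose above 50%, a threshold chosen arbitrarily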

no.	Target gene	reagent	E2F firefly, rep 1	Renilla normaliser, rep 1	Outcome
1	CG4617	1	7703	708	inactive
2	CG15047	1	1.62e5	6036	inactive
3	Ms	1	54184	3024	inactive
4	Sulf1	1	1.21e5	6323	inactive
5	Lcp4	1	1.41e5	4778	inactive
6	cora	1	1.52e5	5563	inactive
7	CG3744	1	1.12e5	5696	inactive
8	CAH1 + Adat1	1	76861	3282	inactive
9	Eglp3	1	99242	4357	inactive
10	CG12773	1	1875	916	inactive
11	Obp57c	1	1.52e5	5347	inactive
12	OXA1L	1	71445	3441	inactive
13	CG32706 + CG6999	1	59703	4907	inactive
14	Rpt4	1	37252	4499	inactive
15	CG15425	1	1.58e5	4939	inactive
16	ETHR	1	1.54e5	7881	inactive
17	CG14654 (retired record)	1	1.39e5	6786	inactive
18	Arp5	1	63137	2746	inactive
19	CG13748	1	1.35e5	4331	inactive
20	IKKepsilon	1	96779	3779	inactive
21	lncRNA:CR32553	1	85939	3370	inactive
22	CG15725	1	1.42e5	6683	inactive
23	CG13983	1	1.54e5	5485	inactive
24	fne	1	82243	4996	inactive
25	shf	1	1.31e5	6160	inactive
26	CG13807	1	93511	3893	inactive
27	mAChR-A	1	1.22e5	4539	inactive
28	Nedd4	1	1.72e5	7818	inactive
29	CG30116	1	60214	3330	inactive
30	CG30116	2	1.61e5	5067	inactive
31	Atpalpha	1	69244	3529	inactive
32	CG17298	1	1.55e5	8045	inactive
33	CG34384	1	77891	3487	inactive
34	CG34384	2	1.35e5	6764	inactive
35	CG34384	3	1.43e5	6276	inactive
36	CG34384	4	1.54e5	6822	inactive
37	Lsd-2	1	8338	776	inactive
38	Nak	1	85637	3500	inactive
39	tap	1	1.78e5	9231	inactive
40	CG32568	1	1.37e5	6191	inactive
41	RpL10Aa	1	69836	6211	inactive
42	sand	1	1.42e5	4616	inactive
43	CG3163	1	81957	3213	inactive
44	CG31806	1	1.05e5	4614	inactive
45	Ube4A	1	72224	3435	inactive
46	CG14416	1	1.52e5	7561	inactive
47	sro	1	1.53e5	6616	inactive
48	Tsp29Fb	1	1.30e5	4874	inactive
49	Alas	1	78080	3723	inactive
50	CG8736	1	1.63e5	5633	inactive
51	CG13857	1	1.42e5	7789	inactive
52	IntS2	1	1.79e5	5922	inactive
53	Kank	1	1.29e5	5480	inactive
54	Kank	2	3022	163	inactive
55	Tango10	1	8543	728	inactive
56	sba	1	67142	1857	inactive
57	sba	2	1.18e5	6596	inactive

An excerpt from above, limited to “Renilla normaliser, rep 1”:
CG32568: 6191
RpL10Aa: 6211
sand: 4616
CG3163: 3213
CG31806: 4614
